Measurements published in patent US11592453B2, “Personalized metabolomic profiling of specialized pro-resolving mediators” (THE BRIGHAM AND WOMEN'S HOSPITAL, INC., priority 2016, dated 2023).
Some entries repeat one wording, which the source may state once for all of them.

Tests used:
[1] = tested on: SPM production in human whole blood; experiment: SPM and eicosanoid production during coagulation with heparin, eptifibatide, ADA, celecoxib or BAI; assay type: cell-based; details: coagulation with 200 mU ADA
Procedure: FIG. 2 illustrates regulators of SPM formation in human blood. (A to E) Freshly drawn human peripheral blood (4 ml) containing heparin (10 U/ml) was placed in polypropylene tubes (A) whereas human peripheral blood without anticoagulant was placed in silicone-coated tubes (B to E) and incubated at 37° C. for the time course of 0 to 24 hours (see Example 1, Materials and Methods). The samples were then subjected to snap-freezing for extraction and LC-MS/MS analysis. (A) Concentrations of the members of the SPM cluster (identified in FIG. 1) in samples treated without (Coag.) or with heparin (10 U/ml) during the incubation period. Data are means±SEM of three individual donors. (B) Left: Combined concentrations of the total SPM cluster, prostaglandins, and thromboxanes after 24 hours of coagulation in the presence or absence of the αIIbβ3 inhibitor eptifibatide (Eptifib.; 20 μM). Middle: Clot volumes after 24 hours of coagulation of the indicated samples. Right: Representative clot images. Data are means±SEM of three individual donors. (C) Concentrations of total SPMs and of the indicated individual SPMs after 24 hours of coagulation in the presence or absence of 200 mU ADA. Data are means±SEM of three individual donors. *P<0.05, **P<0.01 by ratio t-test. (D) Top: LC-MS/MS measurements of adenosine concentrations in whole blood at the indicated time points during coagulation in the presence or absence of ADA. **P<0.01 when compared to the zero-hour time point. Bottom: Flow cytometric analysis of the percentage of neutrophil-platelet aggregates, which were defined as being double-positive for CD16 and CD42b, in whole blood allowed to coagulate for the indicated times in the absence (Coag.) or presence of ADA. Data are means±SEM of five individual donors. *P<0.05, **P <0.01 by student's t test. For dot plots and gating, see FIG. 7B. (E) MS/MS fragmentation profiles with diagnostic ions for the indicated SPMs identified in (C). (F) Left: PCA score plot. Red denotes +ADA for 1 hour; yellow, coagulation for 1 hour; green, coagulation for 24 hours; blue, +ADA for 24 hours. […]

[2] = tested on: prostaglandin, thromboxane and SPM production in human whole blood; experiment: LM metabololipidomics of human whole blood during coagulation in the presence of indomethacin; assay type: cell-based; details: mean of six donors; for LM concentration Avg, Indomethacin t = 0 h: 0 h after coagulation in the presence of indomethacin; for LM concentration Avg, Indomethacin t = 0.25 h: 0.25 h after coagulation in the presence of indomethacin; for LM concentration Avg, Indomethacin t = 0.5 h: 0.5 h after coagulation in the presence of indomethacin; for LM concentration Avg, Indomethacin t = 1 h: 1 h after coagulation in the presence of indomethacin; for LM concentration Avg, Indomethacin t = 3 h: 3 h after coagulation in the presence of indomethacin; for LM concentration Avg, Indomethacin t = 6 h: 6 h after coagulation in the presence of indomethacin; for LM concentration Avg, Indomethacin t = 24 h: 24 h after coagulation in the presence of indomethacin
Procedure: FIG. 8 illustrates SPM formation in human blood clots being regulated by lipoxygenase activity. (A and B) Freshly drawn human peripheral blood (4 ml) was placed in silicone-coated tubes at 37° C. for 24 hours and coagulation was stopped by snap-freezing before LC-MS/MS analysis was performed. Concentrations of total SPMs, prostaglandins, and thromboxanes after 24 hours of coagulation (Coag.) in the presence or absence of (A) 100 μM indomethacin (Indo.) (n=six individual donors), (B) 500 nM celecoxib (CLX) or 20 μM BAI (n=three individual donors). Data are means±SEM; *P<0.05 for +BAI vs. Coag; ****P<0.0001 for +Indo vs. Coag. using ratio t-test.
Human whole blood was transferred in 4-ml aliquots to negatively charged, silicone-coated 10-ml tubes (BD) without anticoagulant. For experiments with heparin, the heparinized blood was placed in 15-ml polypropylene tubes before incubation at 37° C. For LM profiling at designated times, all samples were immediately subjected to a workup procedure by which whole blood was snap-frozen in a dry ice/isopropanol bath and were returned to room temperature (×3 cycles) before undergoing centrifugation at 100,000 g at 4° C. Supernatants (and clots for select experiments; see FIG. 6) were collected and were subjected to LC-MS/MS LM metabololipidomics.
To obtain a complete blood profile of eicosanoids and SPMs each sample was subjected to a procedure involving snap-freezing of whole blood that was then thawed to room temperature three times and centrifuged at 100,000 g at 4 °C for 30 min before undergoing solid-phase extraction (SPE). Internal standards including d8-5-HETE, d5-RvD2, d5-LXA4, d4-LTB4, and d4-PGE2 (500 pg each; Cayman Chemical) were added together with four volumes of methanol to facilitate protein precipitation. […] Before elution, LM bound to the SPE matrix were neutralized with ddH2O. Methyl formate fractions from the SPE were brought to dryness under a gentle stream of nitrogen and resuspended in 1:1 methanol:water before injection into a liquid chromatography-tandem mass spectrometry system consisting of a QTrap 5500 (AB Sciex) equipped with a Shimadzu LC-20AD HPLC (Tokyo, Japan). A Poroshell 120 EC-18 column (100 mm×4.6 mm×2.7 μm; Agilent Technologies) was kept in a column oven maintained at 50° C., and lipid mediators (LMs) were eluted in a gradient of methanol/water/acetic acid from 55:45:0.01 (v/v/v) to 100:0:0.01 at a flow rate of 0.5 ml/min. To monitor and quantify the amounts of lipid mediators of interest, multiple reaction monitoring (MRM) was used with MS/MS matching signature ion fragments for each molecule (at least six diagnostic ions; ˜0.1 pg limits of detection as described previously (15)]. PCA was performed as described previously (15) with SIMCA software, version 13.0.3. Calibration curves were obtained daily from authentic (nonsynthetic) standards and matrix suppression for each targeted LM in snap-frozen blood, and supernatants determined and used for recovery and quantitation.

[3] = Murine peritonitis and hemorrhagic exudates, LM profiling; assay type: in vivo; details: mice, zymosan plus thrombin i.p., 4 hours

Row | Structure (SMILES) | greatest concentrations of D-series resolvins in the ADA-treated samples [1] [pM] | LM concentration Avg, Indomethacin t = 0 h [2] | LM concentration Avg, Indomethacin t = 0.25 h [2] | LM concentration Avg, Indomethacin t = 0.5 h [2] | LM concentration Avg, Indomethacin t = 1 h [2] | LM concentration Avg, Indomethacin t = 3 h [2] | LM concentration Avg, Indomethacin t = 6 h [2] | LM concentration Avg, Indomethacin t = 24 h [2] | abundance in hemorrhagic exudates compared to sham saline alone [3]
1 | CC/C=C\C[C@H](O)/C=C\C=C\C/C=C/C=C/C=C/C(O)[C@@H](O)CCC(=O)O (stereo in doubt) [RvD4, resolvin D4] | 447 | — ((—) denotes concentrations <0.1 pg/ml) | — ((—) denotes concentrations <0.1 pg/ml) | — ((—) denotes concentrations <0.1 pg/ml) | — ((—) denotes concentrations <0.1 pg/ml) | — ((—) denotes concentrations <0.1 pg/ml) | — ((—) denotes concentrations <0.1 pg/ml) | — ((—) denotes concentrations <0.1 pg/ml) | 
2 | CC/C=C\C/C=C\C[C@H](O)\C=C/C=C/C=C/[C@H](O)C/C=C\CCC(=O)O [Maresin 1, maresin 1 (7R, 14S-dihydroxy-docosa-4Z, 8E, 10E, 12Z, 16Z, 19Z-hexaenoic acid)] |  | 1.0 pg/mL | 1.9 pg/mL | 0.4 pg/mL | 0.6 pg/mL | 1.4 pg/mL | 1.8 pg/mL | 4.8 pg/mL | statistically significantly increased in abundance
3 | CC/C=C\C[C@H](O)/C=C/C=C\C=C\C=C\[C@@H](O)[C@@H](O)C/C=C\CCC(=O)O [RvD1, Resolvin D1 (7S, 8R, 17S-trihydroxy-docosa-4Z, 9E, 11E, 13Z, 15E, 19Z-hexaenoic acid)] |  | — ((—) denotes concentrations <0.1 pg/ml) | 0.4 pg/mL | 0.5 pg/mL | 0.6 pg/mL | 1.8 pg/mL | 5.6 pg/mL | 34.2 pg/mL | statistically significantly increased in abundance
4 | CC/C=C\C[C@H](O)/C=C/C=C\C[C@@H](O)/C=C/C=C/C=C\[C@@H](O)CCC(=O)O [RvD3, Resolvin D3 (4S, 11R, 17S-trihydroxy-docosa-5Z, 7E, 9E, 13Z, 15E, 19Z-hexaenoic acid)] | 150 | — ((—) denotes concentrations <0.1 pg/ml) | — ((—) denotes concentrations <0.1 pg/ml) | — ((—) denotes concentrations <0.1 pg/ml) | — ((—) denotes concentrations <0.1 pg/ml) | — ((—) denotes concentrations <0.1 pg/ml) | — ((—) denotes concentrations <0.1 pg/ml) | — ((—) denotes concentrations <0.1 pg/ml) | 
5 | CC/C=C\C[C@H](O)/C=C/C=C\C/C=C\C=C\[C@@H](O)C/C=C\CCC(=O)O [RvD5, Resolvin D5 (7S, 17S-dihydroxy-docosa-4Z, 8E, 10Z, 13Z, 15E, 19Z-hexaenoic acid)] |  | 1.2 pg/mL | 1.6 pg/mL | 2.1 pg/mL | 2.6 pg/mL | 7.0 pg/mL | 10.1 pg/mL | 14.7 pg/mL | statistically significantly increased in abundance
6 | CC/C=C\C[C@H](O)/C=C/C=C\C/C=C\C/C=C\C=C\[C@@H](O)CCC(=O)O [RvD6, resolvin D6] | 304 | — ((—) denotes concentrations <0.1 pg/ml) | — ((—) denotes concentrations <0.1 pg/ml) | — ((—) denotes concentrations <0.1 pg/ml) | — ((—) denotes concentrations <0.1 pg/ml) | — ((—) denotes concentrations <0.1 pg/ml) | — ((—) denotes concentrations <0.1 pg/ml) | — ((—) denotes concentrations <0.1 pg/ml) | 
7 | CC[C@@H](O)/C=C/C=C\C[C@@H](O)/C=C/C=C/C=C\[C@@H](O)CCCC(=O)O [RvE1, Resolvin E1 (5S, 12R, 18R-trihydroxy-eicosa-6Z, 8E, 10E, 14Z, 16E-pentaenoic acid)] |  | — ((—) denotes concentrations <0.1 pg/ml) | — ((—) denotes concentrations <0.1 pg/ml) | — ((—) denotes concentrations <0.1 pg/ml) | — ((—) denotes concentrations <0.1 pg/ml) | 0.3 pg/mL | 0.8 pg/mL | 4.5 pg/mL | statistically significantly increased in abundance
